Assay results from the supplement of paper PMC10849652.
The other results are listed elsewhere or left out.

Amino acid sequences for entries named in this document (tags omitted). A change or cut given only in a name is not applied to a line headed by its entry.
UniProt P17706: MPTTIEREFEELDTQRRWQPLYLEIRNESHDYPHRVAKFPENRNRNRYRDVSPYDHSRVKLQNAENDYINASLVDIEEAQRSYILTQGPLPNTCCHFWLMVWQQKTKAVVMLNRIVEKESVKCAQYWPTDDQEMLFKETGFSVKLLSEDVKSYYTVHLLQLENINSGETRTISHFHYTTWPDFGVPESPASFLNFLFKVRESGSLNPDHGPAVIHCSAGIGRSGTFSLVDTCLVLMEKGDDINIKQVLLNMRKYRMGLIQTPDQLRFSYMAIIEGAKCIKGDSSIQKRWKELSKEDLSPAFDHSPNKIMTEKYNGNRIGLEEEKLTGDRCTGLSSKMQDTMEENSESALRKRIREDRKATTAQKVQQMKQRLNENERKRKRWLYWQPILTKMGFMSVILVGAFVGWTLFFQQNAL
UniProt P28065: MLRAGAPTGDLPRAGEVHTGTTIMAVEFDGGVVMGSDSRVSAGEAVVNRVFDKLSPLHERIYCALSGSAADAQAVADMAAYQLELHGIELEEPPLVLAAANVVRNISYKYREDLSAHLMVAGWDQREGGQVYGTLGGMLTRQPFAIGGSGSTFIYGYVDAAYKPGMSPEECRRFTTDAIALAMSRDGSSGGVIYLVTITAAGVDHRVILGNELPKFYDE
UniProt Q15032: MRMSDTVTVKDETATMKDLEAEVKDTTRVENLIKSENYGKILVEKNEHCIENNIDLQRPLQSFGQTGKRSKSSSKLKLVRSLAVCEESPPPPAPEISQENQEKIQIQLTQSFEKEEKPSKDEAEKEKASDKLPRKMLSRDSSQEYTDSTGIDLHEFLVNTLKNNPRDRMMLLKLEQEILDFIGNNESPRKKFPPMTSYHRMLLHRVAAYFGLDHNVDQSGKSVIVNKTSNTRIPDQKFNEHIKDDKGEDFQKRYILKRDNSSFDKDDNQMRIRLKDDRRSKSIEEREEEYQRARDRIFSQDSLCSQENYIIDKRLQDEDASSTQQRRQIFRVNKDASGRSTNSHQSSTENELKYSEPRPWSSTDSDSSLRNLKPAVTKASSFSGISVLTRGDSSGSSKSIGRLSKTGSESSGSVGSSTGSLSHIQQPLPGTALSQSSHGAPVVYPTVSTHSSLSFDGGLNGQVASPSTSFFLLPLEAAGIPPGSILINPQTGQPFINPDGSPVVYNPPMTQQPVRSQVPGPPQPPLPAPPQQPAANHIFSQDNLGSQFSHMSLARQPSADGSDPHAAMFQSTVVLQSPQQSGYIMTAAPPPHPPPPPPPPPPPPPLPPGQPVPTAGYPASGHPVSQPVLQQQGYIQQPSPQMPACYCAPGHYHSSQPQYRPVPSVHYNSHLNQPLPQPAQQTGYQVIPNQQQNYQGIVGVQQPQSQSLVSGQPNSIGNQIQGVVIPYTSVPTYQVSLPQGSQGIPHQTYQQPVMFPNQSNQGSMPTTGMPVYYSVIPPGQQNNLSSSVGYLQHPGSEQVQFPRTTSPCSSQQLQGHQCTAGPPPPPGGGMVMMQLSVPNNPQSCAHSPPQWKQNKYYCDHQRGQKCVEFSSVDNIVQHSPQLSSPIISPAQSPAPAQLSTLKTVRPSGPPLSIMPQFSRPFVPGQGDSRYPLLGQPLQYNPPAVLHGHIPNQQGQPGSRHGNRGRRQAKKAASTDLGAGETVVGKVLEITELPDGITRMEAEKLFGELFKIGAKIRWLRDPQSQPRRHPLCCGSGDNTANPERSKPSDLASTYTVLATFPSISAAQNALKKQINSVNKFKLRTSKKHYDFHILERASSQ

Tests used:
Assay in all cases: log2 fold change, soluble protein after heating vs DMSO (PISA); higher = thermal stabilisation; K562 cells, 10 uM, 30 min; active = over 0.2 and 3.5 SD of the protein, either way, in both replicates (recomputed)
bafetinib = compound: Cc1ccc(NC(=O)c2ccc(CN3CC[C@H](N(C)C)C3)c(C(F)(F)F)c2)cc1Nc1nccc(-c2cncnc2)n1 [bafetinib]
Procedure, shortened: (§1)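 Soluble protein was quantified by TMTpro 16plex LC-MS/MS after channel sums were equalised. It was obtained as the supernatant after 21,000xg for 90 min from pooled aliquots of K562 cells (2×10^6 cells/mL, 10 μM compound, 30 min) heated for 3 min across 48°C-58°C and extracted in PBS with 0.5% NP-40 at 4°C. Thermal stability values are relative to control samples and come from duplicates. They are given as log2 fold changes.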

[1] = compound: Cc1cccc(CC(=O)N2CCc3c2ccc(-c2cn(C)c4ncnc(N)c24)c3F)n1
Procedure, shortened: as §1

dasatinib = compound: Cc1nc(Nc2ncc(C(=O)Nc3c(C)cccc3Cl)s2)cc(N2CCN(CCO)CC2)n1 [dasatinib]
Procedure, shortened: as §1

[2] = compound: Cn1cc(-c2ccc3c(c2)CCN3C(=O)Cc2cccc(C(F)(F)F)c2)c2c(N)ncnc21
Procedure, shortened: as §1

[3] = compound: Cn1cc(-c2ccc3nnc(C(F)(F)c4ccc5ncccc5c4)n3n2)cn1
Procedure, shortened: as §1

tipifarnib = compound: Cn1cncc1[C@@](N)(c1ccc(Cl)cc1)c1ccc2c(c1)c(-c1cccc(Cl)c1)cc(=O)n2C [tipifarnib]
Procedure, shortened: as §1

mubritinib = compound: FC(F)(F)c1ccc(/C=C/c2nc(COc3ccc(CCCCn4ccnn4)cc3)co2)cc1 [mubritinib]
Procedure, shortened: as §1

nilotinib = compound: Cc1cn(-c2cc(NC(=O)c3ccc(C)c(Nc4nccc(-c5cccnc5)n4)c3)cc(C(F)(F)F)c2)cn1 [nilotinib]
Procedure, shortened: as §1

[4] = compound: Cc1nc(Nc2n[nH]c3c2CN(C(=O)N[C@H](CN(C)C)c2ccccc2)C3(C)C)c2sccc2n1
Procedure, shortened: as §1

[5] = compound: Cc1ncc(-c2ccnc(Nc3ccc(S(C)(=O)=O)cc3)n2)n1C(C)C
Procedure, shortened: as §1

Measured: log2 fold change

PTPN2 (UniProt P17706)
inactive: bafetinib 0.081 | [1] 0.066 | dasatinib -0.11 | [2] -0.009 | [3] 0.054 | tipifarnib 0.11 | mubritinib 0.123

PSMB9 (UniProt P28065)
inactive: bafetinib -0.22 | [1] -0.122 | [2] 0.054 | tipifarnib 0.03

R3HDM1 isoform 2 (UniProt Q15032)
inactive: bafetinib -0.185 | [1] 0.058 | nilotinib -0.115 | [4] -0.151 | dasatinib -0.026 | [5] -0.094 | [3] -0.026 | tipifarnib -0.094 | mubritinib -0.011
